Laboratory results published in US20060121494A1.
No constants are given. Whether binding was seen depends on the method and setting. Binding seen in cells or lysates may run through a third protein. Some entries that bind do so weakly or less than the wild type.

How the values were obtained:
[1] = target: T1, hypophosphorylated Rb (retinoblastoma protein) (human) (UniProt P06400); test: co-immunoprecipitation (discussion of Example 1)
T1 sequence (hypophosphorylated form, looked up): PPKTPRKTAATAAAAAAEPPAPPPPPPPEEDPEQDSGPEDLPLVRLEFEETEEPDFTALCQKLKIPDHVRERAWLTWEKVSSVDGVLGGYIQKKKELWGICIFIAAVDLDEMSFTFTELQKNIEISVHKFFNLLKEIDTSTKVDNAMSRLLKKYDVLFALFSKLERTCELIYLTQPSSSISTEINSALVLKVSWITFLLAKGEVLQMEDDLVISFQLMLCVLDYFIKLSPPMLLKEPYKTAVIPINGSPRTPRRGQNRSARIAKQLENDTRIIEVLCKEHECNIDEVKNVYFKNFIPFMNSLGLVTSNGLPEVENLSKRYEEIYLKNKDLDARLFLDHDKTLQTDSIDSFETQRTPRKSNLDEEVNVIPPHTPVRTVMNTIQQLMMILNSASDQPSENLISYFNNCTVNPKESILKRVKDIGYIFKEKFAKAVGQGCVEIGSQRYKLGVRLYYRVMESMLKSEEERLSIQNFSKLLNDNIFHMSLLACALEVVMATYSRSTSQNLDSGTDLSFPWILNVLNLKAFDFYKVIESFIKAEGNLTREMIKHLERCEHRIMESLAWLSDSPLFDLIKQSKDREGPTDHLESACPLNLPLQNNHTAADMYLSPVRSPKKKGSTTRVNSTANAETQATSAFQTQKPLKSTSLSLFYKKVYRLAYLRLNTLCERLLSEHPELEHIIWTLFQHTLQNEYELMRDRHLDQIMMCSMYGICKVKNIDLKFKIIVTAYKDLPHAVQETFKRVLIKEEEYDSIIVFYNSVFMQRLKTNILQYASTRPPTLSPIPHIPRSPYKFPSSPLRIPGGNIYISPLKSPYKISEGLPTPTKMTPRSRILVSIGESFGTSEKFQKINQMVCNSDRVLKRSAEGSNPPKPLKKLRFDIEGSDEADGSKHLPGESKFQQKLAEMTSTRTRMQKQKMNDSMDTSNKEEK

[2] = target: T1, hypophosphorylated Rb (retinoblastoma protein) (human); test: co-immunoprecipitation with anti-Id2 from TIG-3 lysates, Western blot
[3] = target: T1, hypophosphorylated Rb (retinoblastoma protein) (human); test: co-immunoprecipitation with anti-Id2 from neuroblastoma cell lysates, Western blot for Rb

binding [1]: binds | binding [2]: binds | binding [3]: binds
B1: Id2 protein (endogenous, human cells) (protein)
chain: MKAFSPVRSVRKNSLSDHSLGISRSKTPVDDPMSLLYNMNDCYSKLKELVPSIPQNKKVSKMEILQHLIDYILDLQIALDSHPTIVSLHHQRPGQNQRSRTTPLTTLNTDISILSLQASEFPSELMSNDSKALCG
